Results reported in PubChem BioAssay AID493014 (National Center for Advancing Translational Sciences (NCATS), 2011).
The whole screen tested about 340,000 compounds, of which about 170 (0.05%) were called active. This list was built around the results that the source calls inconclusive (neither active nor inactive); the mix of calls is not that of the screen. Calls come from the whole dose curve; as a rule, active = well fitted inhibition curve with a large enough effect in the signal ratio, with a control signal flat (not every such curve was filed as active); inconclusive = small, poorly fitted or top-dose-only effect, or effect the other way, or a change in a side signal; inactive = flat fitted curve, though single readings scatter; the % refers to the signal ratio. Potencies beside an inconclusive call are fits to weak or partial responses and may not hold up.

assay: qHTS Assay to Find Inhibitors of Chronic Active B-Cell Receptor Signaling; conditions: ABC-DLBCL IkBa-CBG/CBR reporter, luminescence ratio (green luciferase fused to IkBa over red control in TMD8 lymphoma cells), 4 h; activity change, negative = inhibition: at 46.1 µM (top of the series) unless noted;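 for activity change, negative = inhibition: plate controls were basal doxycycline-induced cells for no effect and cells given 10 µM MG132 for full effect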
Outline: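 TMD8 ABC-DLBCL cells carrying doxycycline-inducible green luciferase fused to IkappaBalpha plus unfused red luciferase were exposed to compounds (up to 46 uM) for 4 hrs at 37C. Activity came from the overlap-corrected green/red luminescence ratio.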
Potency is the fitted concentration of half-maximal effect.

| Compound | activity change, negative = inhibition | Potency |
| --- | --- | --- |
| COc1ccc(-c2nc(C#N)c(NC(C)C)o2)cc1 | inconclusive: -1.86% |  |
| COc1cc(/C=C/C2=CC(C)(C)NC(=S)N2)cc(OC)c1OC |  | inconclusive: 3.16 µM [falling, full curve] |
| CCCc1nc(SCC(=O)NCC2CCCO2)c2c(=O)n(C)c(=O)n(C)c2n1 (stereo unspecified) | inactive |  |
| C/C=C/c1ccc(OCCOCCNCc2ccccc2)c(OC)c1 | inactive |  |
| COc1ccccc1N1CCN(C(=O)c2ccc(C(C)(C)C)cc2)CC1 | inactive |  |
| CCN(CC)c1nc(C(N)=O)cc(-c2ccccc2)n1 |  | inconclusive: 3.98 µM [rising, full curve, poor fit] |
| CCC(=O)Nc1nc(C)c(-c2csc(Nc3cccc(C(=O)O)c3)n2)s1 |  | inconclusive: 15.8 µM [falling, partial curve] |
| Clc1ccc(CN2CCCCCCC2)cc1Cl | inactive |  |
| CCOC(=O)N1CCN(Cc2nc(N)nc(Nc3ccc(C)cc3C)n2)CC1 | inconclusive: 0.78% |  |
| O=C(Nc1ccc(S(=O)(=O)N2CCOCC2)cc1)c1ccc(F)cc1 | inactive |  |
| COc1ccc(CN(C#N)c2nc(C)cc(C)n2)cc1 | inconclusive: -19.7% |  |
| Cc1ccc(SCCNC(=O)/C=C/c2ccc([N+](=O)[O-])cc2)cc1 | inactive |  |
| O=C(Nc1ccc(Cl)cc1)Nc1nc(-c2ccccc2O)cs1 | inconclusive: -5.9% |  |
| O=c1[nH]c2ccc(NCc3ccc(OCc4ccccc4Cl)cc3)cc2[nH]1 |  | inconclusive: 35.5 µM [rising, single point] |
| Cc1cccc2c1-c1sc(C(=O)Nc3cccc([N+](=O)[O-])c3C)cc1CO2 |  | inconclusive: 20.6 µM [falling, partial curve] |
| COc1ccc(/C=N/NC(=O)c2ccc(N)cc2)cc1Cn1cc([N+](=O)[O-])cn1 |  | inconclusive: 2.24 µM [falling, full curve, poor fit] |
| CC1(C)OC(=O)C(=CNc2cccc(C(=O)O)c2)C(=O)O1 |  | inconclusive: 35.5 µM [falling, single point] |
| COc1ccc(-c2ccc3ccccc3n2)cc1OC | inconclusive: -20.2% |  |
| COc1cc(C(=O)OCCCN(C)C)cc(OC)c1OC | inactive |  |
| CCC1CCCCN1C(=O)CSc1nnc(-c2cccc(Cl)c2)o1 (stereo unspecified) | inconclusive: 24.1% |  |
| COc1ccc(-c2cnn3c4c(c(C)nc23)CCN4C(C)C)cc1OC | inconclusive: 11.6% |  |

Some of the entries so far, bar-delimited.
Compound | activity change, negative = inhibition | Potency
COc1ccc(/C=N/NC(=O)c2ccc(N)cc2)cc1Cn1cc([N+](=O)[O-])cn1 |  | inconclusive: 2.24 µM [falling, full curve, poor fit]
CC1(C)OC(=O)C(=CNc2cccc(C(=O)O)c2)C(=O)O1 |  | inconclusive: 35.5 µM [falling, single point]

Next part

| Compound | activity change, negative = inhibition | Potency |
| --- | --- | --- |
| COc1ccc(-n2nc(C(=O)NCC(=O)NC(C)C)c3ccccc3c2=O)c(OC)c1 | inconclusive: 6.78% |  |
| O=C(NCc1ccc(Cl)cc1)c1ccc(-c2ccccc2C(F)(F)F)o1 |  | inconclusive: 20.6 µM [falling, partial curve, poor fit] |
| CCN(CC(=O)Nc1ccccc1C(F)(F)F)C(=O)CCS(=O)(=O)c1ccc(Cl)cc1 | inactive |  |
| CC1(C)CC(=O)c2c(O)cc(OCC(=O)N3CCN(c4ccc(F)cc4)CC3)cc2O1 | inactive |  |
| COc1ccc(/C=N/N=C(\N)c2nonc2N)cc1 |  | inconclusive: 35.5 µM [rising, single point] |
| CCOc1ccc(C(C)=O)cc1COC(=O)c1cnc(Cl)c(Cl)c1 | inconclusive: -1.42% |  |
| C=CCn1c(SCC(=O)c2ccc(O)c(O)c2)nnc1-c1ccccc1OC |  | inconclusive: 14.1 µM [falling, single point] |
| Cc1ccc(NC(=O)c2ccccc2NS(=O)(=O)c2ccc(Cl)s2)cc1S(=O)(=O)N1CCOCC1 | inconclusive: 0.927% |  |
| CCCc1cc(=O)[nH]c2nnc(SCC(=O)Nc3ccc(OC)cc3)n12 | inactive |  |
| CC(OC(=O)c1c2c(nc3ccccc13)/C(=C\c1ccc3c(c1)OCO3)CCC2)C(=O)Nc1ccc(S(N)(=O)=O)cc1 (stereo unspecified) | inactive |  |
| Cc1nn(C)c(C)c1NS(=O)(=O)c1ccc(Cl)cc1 | inconclusive: 1.98% |  |
| Cc1nn2c3ccccc3n(C)c2nc1=O | inconclusive: 13.4% |  |
| O=C1NCCC/C1=N\Nc1ccc(Br)cc1 | inconclusive: -1.59% |  |
| COc1ccc(-n2nc(C(=O)NCC(=O)N3CCOCC3)c3ccccc3c2=O)c(OC)c1 | inactive |  |
| O=C(CC(C(=O)O)P(=O)(c1ccccc1)c1ccccc1)c1ccc(Br)cc1 (stereo unspecified) | inconclusive: -19.1% |  |
| CNS(=O)(=O)c1cc(NC(C)=O)c(C)cc1C | inconclusive: 8.98% |  |
| COC(=O)c1ccc(C2/C(=C(/O)c3ccc(Cl)cc3)C(=O)C(=O)N2C2CCS(=O)(=O)C2)cc1 (stereo unspecified) |  | inconclusive: 12.6 µM [falling, partial curve] |
| Cc1ccccc1CN1CCN(c2ccc(S(=O)(=O)N3CCCC3)cn2)CC1 | inactive |  |
| CC(=O)Nc1ccc2c(c1)nc1n2CCN(C2CCCCC2)C1 | inconclusive: -0.0064% |  |
| O=c1c2ccccc2c(C=NC2CCN(Cc3ccccc3)CC2)c(O)n1Cc1ccc2c(c1)OCO2 | inactive |  |
| Cc1cc(=S)[nH]c2ccccc12 | inactive |  |

Single entries from the results shown.
Entry of CCOc1ccc(C(C)=O)cc1COC(=O)c1cnc(Cl)c(Cl)c1 under activity change, negative = inhibition: inconclusive: -1.42%
Entry of O=C(NCc1ccc(Cl)cc1)c1ccc(-c2ccccc2C(F)(F)F)o1 under Potency: inconclusive: 20.6 µM [falling, partial curve, poor fit]

Continuation.

| Compound | activity change, negative = inhibition | Potency |
| --- | --- | --- |
| CN(C)c1nc(OCCOC(=O)COc2ccc(Cl)cc2Cl)nc(N(C)C)n1 | inactive |  |
| COCCn1c(=O)[nH]c2cc(C(=O)N3CCN(c4cccc(C(F)(F)F)c4)CC3)ccc2c1=O | inactive |  |
| Cc1ccc(S(=O)(=O)N2CCOCC2)cc1NC(=O)COc1cccc(Oc2ccccc2)c1 | inconclusive: -25.9% |  |
| CC(C)(C)c1ccc(C(=O)NC(=S)NNC(=O)c2cccs2)cc1 | inactive |  |
| COc1ccc(NC(=O)c2ccccn2)cc1OC |  | inconclusive: 4.11 µM [falling, single point] |
| COc1ccc(N2C(=O)CC(c3ccccc3)CC2=O)cc1 | inactive |  |
| Fc1cc(Br)cc(F)c1NC(=S)N1CCOCC1 | inconclusive: 4.14% |  |
| C/C(CC(=O)Nc1cccc(Cl)c1Cl)=N\NC(=O)C(=O)NC1CCCCC1 | inactive |  |
| O=C(CCN1C(=O)c2ccccc2S1(=O)=O)N1CCN(c2cccc(Cl)c2)CC1 | inactive |  |
| CCOC(=O)c1c(SCC(=O)Nc2nc3ccccc3s2)nc(=O)[nH]c1C | inconclusive: 368% |  |
| Cc1cccc(-c2nc3scc(CCNS(=O)(=O)c4c(C)noc4C)n3n2)c1 | inconclusive: 29.6% |  |
| Cc1cccc(N2CCN(Cc3ccc([N+](=O)[O-])o3)CC2)c1C | inactive |  |
| Cc1ccc2c(c1)c(=O)c1c3n2CCN(C(=O)CCl)C3CC1 (stereo unspecified) | inconclusive: 8.61% |  |
| O=C(NCCCN=C1NS(=O)(=O)c2ccccc21)c1ccc(S(=O)(=O)N2CCCCC2)cc1 |  | inconclusive: 18.4 µM [falling, single point] |
| O=C(Nc1ccc(Cl)cc1)C1=Cc2ccccc2OC1 |  | inconclusive: 14.6 µM [falling, partial curve] |
| Cc1ccc([N+](=O)[O-])cc1S(=O)(=O)N1CCn2cccc2C1c1ccccc1F (stereo unspecified) | inactive |  |
| CC(C)C(=O)N1CCC(CN=Cc2c(O)n(C3CCCCC3)c(=O)n(C3CCCCC3)c2=O)CC1 | inactive |  |
| CN(Cc1ccc(F)cc1)S(=O)(=O)c1nnc(NC(=O)c2ccccc2Br)s1 | inactive |  |
| COc1ccc(N2C(=O)CN=C2Nc2nc(C)cc(C)n2)cc1OC | inactive |  |
| c1ccc(Nc2nc(NCCN3CCOCC3)nc(Nc3ccccc3)n2)cc1 | inconclusive: -8.8% |  |
| O=C(Nc1nc(-c2cccs2)cs1)c1ccc(Cl)cc1 | inconclusive: 29.3% |  |

| Compound | activity change, negative = inhibition | Potency |
| --- | --- | --- |
| COc1ccccc1NC(=S)NC(NC(C)=O)C(Cl)(Cl)Cl (stereo unspecified) |  | inconclusive: 22.4 µM [falling, single point] |
| NC(=O)COC(=O)c1ccc(C(=O)C(=O)c2ccccc2)cc1 | inconclusive: 2.45% |  |
| O=C(Nc1cccnc1)c1c(O)c2cccc3c2n(c1=O)CC3 | inconclusive: 5.71% |  |
| CC1(C)CC(=O)C2=C(C1)O[C@@]1(CCCCN3C(=O)c4ccccc4C3=O)Cc3ccccc3C2O1 | inconclusive: 32.2% [at 9.22 µM] |  |
| CC(=O)c1c(C)oc2c(Br)cc(NS(=O)(=O)c3ccc(Br)cc3)cc12 | inactive |  |
| Cc1ccc(C(=O)C=CNNC(=O)c2ccccc2)cc1 |  | inconclusive: 35.5 µM [rising, single point] |
| O=C(CSc1nc(-c2ccccc2)cs1)Nc1cccc([N+](=O)[O-])c1 | inconclusive: 2.41% |  |
| CCC(=O)[C@@]1(C)[C@H](C)C[C@H]2[C@@H]3CCC4=CC(=O)C=C[C@]4(C)[C@H]3[C@@H](O)C[C@@]21C | inconclusive: -17.3% |  |
| C=CCOc1ccc(/C=C(\C#N)C(=O)Nc2ccccn2)cc1OC | inconclusive: 8.53% |  |
| COc1ccc(OC)c(-c2nnc3n2N=C(c2ccc(OC)c(OCC4CC4)c2)CS3)c1 |  | inconclusive: 0.731 µM [falling, partial curve, poor fit] |
| COc1ccc(NC(=O)Nc2nc3c(s2)CCCC3)cc1 |  | inconclusive: 20.6 µM [falling, partial curve, poor fit] |
| Cc1ccc(S(=O)(=O)c2c(C(=O)c3ccccc3)cnc3cc4c(cc23)OCCO4)cc1 |  | inconclusive: 3.26 µM [falling, full curve] |
| O=C(Nc1cccc(Cl)c1)N(CCN1CCOCC1)Cc1cccc(Cl)c1 | inactive |  |
| O=C1C=C(NC(=O)Nc2ccc(Cl)c(Cl)c2)CCC1 | inconclusive: 9.4% |  |
| CCOc1ccc(OCc2cccc(C(=O)Nc3ccc(CN4CCCCC4)cc3)c2)cc1 |  | inconclusive: 29.1 µM [falling, single point] |
| CCC1=NC(c2ccc(Br)cc2)N(O)C1(C)C (stereo unspecified) | inconclusive: 1.8% |  |
| Cc1cc(C)n(CCCNC(=O)C2CC(=O)N(Cc3ccccc3)C2)n1 (stereo unspecified) | inactive |  |
| O=C(NC1CCCCCC1)c1ccc2nc3cc(Cl)ccc3c(=O)n2c1 |  | inconclusive: 12.6 µM [rising, partial curve, poor fit] |
